The other results are listed elsewhere or left out. Further columns of the screen follow, without active or inactive calls.
Assay: modulators of CD8 T cell-vesicle binding, confirmation, cherry-picked primary hits, two concentrations (AID 2810);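 further: lower values mean blocking of vesicle binding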;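 on percent response (vesicle binding): ratio of mean FL2 vesicle stain of CD8+ cells to that row's control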
Conditions: 2C CD8+ T cell-vesicle binding, flow cytometry; for double positive events: CD8+/vesicle+ events
[1] = at 15.4 µM, stronger effect = lower value

Structure (SMILES) | double positive events (at 7.7 µM) | double positive events [1] | percent response (vesicle binding) (at 7.7 µM)
O=C(COC(=O)CNC(=O)C1CCCCC1)Nc1ccccc1Cl | 17.1% | 29% | 216%
Cc1ccc2nc(-c3cccc(SC4CCCCC4)c3)c(NC3CCCCC3)n2c1 | 8.8% | 11.3% | 146%
CCOc1cc(/C=C2\C(=N)N3N=CSC3=NC2=O)ccc1OS(=O)(=O)c1ccccc1 | 28.4% | 16.8% | 413%
CCOC(=O)c1c(C)oc2c(CN3CCN(C)CC3)c(Br)c(OC)c(O)c12 | 11.4% | 16.4% | 197%
N=c1c(S(=O)(=O)c2ccccc2)cc2c(=O)n3ccccc3nc2n1CC1CCCO1 (configuration not stated) | 30.8% | 17.4% | 265%
CC12CC3(C)CC(C)(C1)CC(C(N)=O)(C2)C3 | 9.4% | 10.3% | 132%
Cc1ccc(S(=O)(=O)N2CCN(c3nc4ccccc4nc3-n3nc(C)cc3C)CC2)cc1 | 10.5% | 34.4% | 305%
CCN(C(=O)Cn1c(=O)oc2ccccc21)c1cccc(C(F)(F)F)c1 | 11.5% | 13.9% | 263%
Cn1c(SCC(=O)Nc2ccc(N3CCOCC3)cc2)nnc1C(F)(F)F | 24.7% | 25.7% | 199%
CCOP(=O)(OCC)c1nc(-c2cccc3ccccc23)oc1N1CCOCC1 | 10.7% | 9.7% | 112%
C/C(=N/NC(=O)c1ccc2c(c1)OCO2)c1cccc(NC(=O)C(C)(C)C)c1 | 12.9% | 14.4% | 145%
FC(F)(F)c1cccc(Cc2noc(CN3CCC(c4ccncc4)CC3)n2)c1 | 25.9% | 31.9% | 377%
O=C(CCC(=O)c1ccccc1)Nc1cccnc1 | 14.9% | 25.8% | 178%
O=C(O)c1ccc2oc(SCC(=O)N3CCCCC3)nc2c1 | 30% | 25.4% | 243%
COc1cc(OC)c(NC(=O)[C@@H]2CCC(=O)N2C2OC(=O)c3c2ccc(OC)c3OC)cc1Cl (some centres not stated) | 17.5% | 33.7% | 197%
CCc1ccc(NC(=O)[C@H](C)NC(=O)C2CCN(C(=O)[C@@H](N)Cc3ccccc3)CC2)cc1 | 12.7% | 31% | 336%
Cc1cc(C(F)F)nn1CC(=O)N1CCSCC1 | 9.4% | 37.2% | 390%
Cc1ccc(Cl)cc1N1CCN(C(=O)C2CCN(c3nnc(-n4cccc4)s3)CC2)CC1 | 8.8% | 14.1% | 162%
COc1ccc(N2CCN(C(=O)Cc3nn(C)c(=O)c4ccccc34)CC2)cc1 | 21.8% | 17.4% | 188%
Cn1c(Cn2cnc([N+](=O)[O-])n2)nnc1SCC(=O)Nc1ccccc1 | 33.6% | 13% | 171%
CCOC(=O)[C@H]1[C@H]2COc3cc(OC)ccc3[C@@H]2N2C(=O)CN(CC3CCCO3)C(=O)[C@@]12C (some centres not stated) | 13.1% | 18.4% | 438%
CCOC(=O)c1cn(CC)c2cc(Cl)c([N+](=O)[O-])cc2c1=O | 20.9% | 1.4% | 326%
CCN(Cc1ccccc1)C(=O)CSc1nc(C)cc2c1C(=O)OC2 | 11.7% | 25.9% | 330%
COc1ccc2cc(C(=O)COC(=O)COc3ccc4c(C)cc(=O)oc4c3)ccc2c1 | 10.1% | 21.2% | 109%
O=C(NC1CCCCC1)C1CCCN1C(=O)NCc1ccccc1 (configuration not stated) | 19.1% | 7.2% | 152%
CCOC(=O)c1c(C)n(C)c2ccc(OCC(O)CNC(CC)CO)cc12 (configuration not stated) | 12.6% | 19.1% | 175%
O=S(=O)(N/N=C\c1ccc(-c2ccccc2Cl)o1)c1ccccc1 | 18.7% | 11.1% | 514%

Reformatted as labelled records: entries from further up.
COc1cc(OC)c(NC(=O)[C@@H]2CCC(=O)N2C2OC(=O)c3c2ccc(OC)c3OC)cc1Cl (some centres not stated)
  double positive events (at 7.7 µM): 17.5%
  double positive events [1]: 33.7%
  percent response (vesicle binding) (at 7.7 µM): 197%
CCOC(=O)c1cn(CC)c2cc(Cl)c([N+](=O)[O-])cc2c1=O
  double positive events (at 7.7 µM): 20.9%
  double positive events [1]: 1.4%
  percent response (vesicle binding) (at 7.7 µM): 326%

(list continues)

Structure (SMILES) | double positive events (at 7.7 µM) | double positive events [1] | percent response (vesicle binding) (at 7.7 µM)
CCOC(=O)/C=C1\SCC(=O)N1CC(=O)NC1CCCCC1 | 14.9% | 28.7% | 396%
Clc1ccc(COC(Cn2ccnc2)c2ccc(Cl)cc2Cl)c(Cl)c1 (configuration not stated) | 8.8% | 15.8% | 358%
COC(=O)C1CCCCN1C(=O)c1cc(COc2cccc3cnccc23)on1 (configuration not stated) | 16.8% | 14.9% | 210%
CCOc1ccc(S(=O)(=O)N2CCC(C(=O)OC(C)C(=O)NC3CCCCC3C)CC2)cc1 (configuration not stated) | 17.2% | 12.3% | 87%
CCc1ccc(/C(C)=N/NC(=O)c2ccc(-n3cnnn3)cc2)cc1 | 11% | 10.6% | 547%
COc1ccc(C(=O)Nc2c3c(nn2C(C)(C)C)CS(=O)(=O)C3)cc1OC | 7.3% | 7.7% | 268%
COC(=O)c1c(NC(=O)c2ccccc2)sc(Cc2ccccc2)c1C | 10.6% | 28.6% | 348%
O=c1cc(N2CCc3ccccc3C2)[nH]c(=O)n1-c1ccc(Br)cc1 | 25.9% | 11.3% | 165%
O=C(NCc1cccnc1)C(=O)NCC(c1ccco1)N1CCN(c2ccccc2F)CC1 (configuration not stated) | 25% | 19% | 186%
Cc1ccccc1C(=O)NCC(=O)NNC(=O)c1cccc(Cl)c1 | 25.2% | 21.4% | 294%
COc1ccc2c(c1)-c1c(sn(-c3ccc(OC)c(OC)c3)c1=S)C(C)(C)N2 | 14% | 1.7% | 179%
COc1ccc(-n2c(=O)c(CCC(=O)N3CCC(C)CC3)nc3ccccc32)cc1 | 11.9% | 11.7% | 127%
O=C1CN(C(=O)COC(=O)c2ccc([N+](=O)[O-])o2)c2ccccc2N1 | 26.6% | 14.9% | 231%
Cc1ccc(S(=O)(=O)N(C(=O)c2ccncc2)c2ccc(OC(=O)c3ccncc3)c3ccccc23)cc1 | 25.8% | 47.5% | 207%
Cc1cc(=O)oc2cc(NC(=O)C3COc4ccccc4O3)ccc12 (configuration not stated) | 34.3% | 14.2% | 255%
CCn1c(SCC(=O)Nc2ccc(C(C)=O)cc2)nc2nc3c(cc2c1=O)CCCC3 | 12.3% | 13.1% | 216%
Cc1nn(C)c(C)c1CN(C)S(=O)(=O)c1ccc(F)cc1 | 23.5% | 4.7% | 218%
CC1CCN(C(=O)CCC(=O)Nc2nnc(C(F)(F)F)s2)CC1 | 28.7% | 8.4% | 320%
CC(=O)c1c(C)[nH]c(C(=O)OCC(=O)NCc2ccc(Cl)cc2)c1C | 15.9% | 14.5% | 218%
Cc1ccc2ccc3ccc(C)nc3c2n1 | 14.3% | 11.3% | 374%
CC(C)NC(=O)N(C)C[C@H]1Oc2ccc(NS(=O)(=O)c3ccccc3)cc2C(=O)N([C@H](C)CO)C[C@H]1C | 19.5% | 11.7% | 102%
COc1ccc(/C=C/C(=O)ONC2=NCCCCC2)cc1OC | 16% | 29.1% | 337%
Cc1sc2ncnc(SCC(=O)Nc3ccc(CN4CCCC4)cc3)c2c1C | 8.9% | 13.1% | 122%
CCOC(=O)n1c(=O)oc2cc(S(=O)(=O)N3CCOCC3)ccc21 | 9% | 21.7% | 258%
C/C(O)=C/c1nc2ccccc2[nH]c1=O | 8.8% | 17.4% | 132%
O=S(=O)(Nc1nc2ccccc2nc1N1CCc2ccccc2C1)c1ccc(Cl)cc1 | 10.3% | 22% | 215%
C=CCSc1nnc2c(n1)[nH]c1c(C)cccc12 | 11.4% | 18.8% | 178%

Structure (SMILES) | double positive events (at 7.7 µM) | double positive events [1] | percent response (vesicle binding) (at 7.7 µM)
O=C(Nc1nc2c(s1)CCCC2)C1COc2ccccc2O1 (configuration not stated) | 21.7% | 10.2% | 423%
O=C(Cn1cc2c(n1)CCCC2)NCc1ccccn1 | 16.3% | 4.8% | 94.1%
Cc1cc(NC(=S)NC(=O)C2CC2)ccc1Br | 10.1% | 27.2% | 344%
CCn1c(SCC(=O)Nc2ccc(OC)cc2)nc2nc3c(cc2c1=O)COC(C)(C)C3 | 7.4% | 15.6% | 294%
Cc1sc2ncnc(Sc3ccccc3C(=O)Nc3ccc(C#N)cc3)c2c1C | 39.9% | 27.6% | 396%
COc1ccc(C(=O)Nc2c(N)nc(SCC(=O)NCC3CCCO3)[nH]c2=O)cc1 (configuration not stated) | 10.1% | 19.3% | 335%
Cc1ccccc1C(=O)N1CCC(C(=O)Nc2ccc(C)c(S(=O)(=O)N3CCCCC3)c2)CC1 | 11.6% | 21% | 418%
COc1ccc(C(=O)CCC(C)(C)[N+](=O)[O-])cc1OC | 6.7% | 24.9% | 76.5%
C=CCC[C@H](Cc1ccc(F)cc1)C(=O)OC[C@H](C)NC(=O)[C@@H](CC=C)CC(=O)N[C@H](CO)Cc1ccccc1 | 21.2% | 12.5% | 232%
COC(=O)c1ccc(NC(=O)COC(=O)C2=NN(c3ccccc3)C(=O)CC2)cc1 | 18.6% | 9% | 228%
Cc1ccc(N(C(=O)CNC(=O)c2ccco2)C(C(=O)NC2CCCCC2)c2cccnc2)cc1 (configuration not stated) | 33.1% | 9.3% | 324%
COc1ccc(Nc2cc(C)nc3ncnn23)c(OC)c1 | 6.5% | 17.4% | 386%
Cc1cc(-c2n[nH]c(=S)n2/N=C/C=C/c2ccco2)n[nH]1 | 12.8% | 25.4% | 165%
O=c1[nH]c2ccccc2n1CCCOc1ccccc1 | 7.4% | 13.5% | 70.1%
N=c1oc2ccccc2cc1C(=O)NCc1ccccc1 | 9.8% | 32.5% | 421%
CCOc1ccccc1C1C(C(=O)Nc2ccc(OC)cc2)=C(C)Nc2nc(CCCO)nn21 (configuration not stated) | 14.4% | 26.1% | 225%
O=[N+]([O-])c1ccc(Cl)c(S(=O)(=O)Nc2ccc(-c3ccc(N4CCOCC4)nn3)cc2)c1 | 9.4% | 16.4% | 388%
CC(C)c1ccc(C(C)NCCS(=O)(=O)c2ccc(Cl)cc2)cc1 (configuration not stated) | 14.3% | 21.8% | 172%
CC(C)Oc1ccc(C(=O)CCN2CCCCC2)cc1 | 16.3% | 14.1% | 494%
Cc1ccc(-c2cc(-c3ccccc3)c(C#N)c(N)n2)o1 | 10% | 19.8% | 99.2%
COc1cc(OC)cc(-c2oc(=O)c3cc(OC)c(OC)cc3c2C(F)(F)F)c1 | 11.9% | 26.9% | 409%
CN(C)S(=O)(=O)Nc1ccccn1 | 26.8% | 14.7% | 311%
CCN(CC(=O)NCc1cccs1)C(=O)COc1ccc(C(C)=O)cc1 | 26.7% | 5.8% | 265%
COc1ccccc1CCNC(=O)C(=O)NCC1OCCCN1S(=O)(=O)c1ccc(F)cc1C (configuration not stated) | 11% | 28.7% | 479%
O=c1[nH]nc(-c2ccccc2)cc1-c1ccccc1 | 6.9% | 22.7% | 206%

Complete entries, looked up by structure. Values in the order: double positive events (at 7.7 µM) | double positive events [1] | percent response (vesicle binding) (at 7.7 µM)
`COC(=O)C1CCCCN1C(=O)c1cc(COc2cccc3cnccc23)on1` (configuration not stated) in the list: 16.8% | 14.9% | 210%
`Cn1c(Cn2cnc([N+](=O)[O-])n2)nnc1SCC(=O)Nc1ccccc1` in the list: 33.6% | 13% | 171%
`C/C(O)=C/c1nc2ccccc2[nH]c1=O` in the list: 8.8% | 17.4% | 132%
`O=c1[nH]nc(-c2ccccc2)cc1-c1ccccc1` in the list: 6.9% | 22.7% | 206%
